# This is one part of the list. Hit calls seldom repeat between salt and free forms of one compound.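 Kinases were expressed as nanoluciferase fusions in K562 cells and luminescence was read every 4 h between 2 and 18 h as percent of control, DMSO set to 100% and a positive control to 0%. A time point counts as decreased when the signal drops significantly (2 sigma). The hit call is the authors' own, does not follow from the count of time points alone, and its rule is not shown.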
# By UniProt entry, the sequences of proteins in these tests, tags left out. Where a name states a change or a piece, a line headed by the entry shows the natural chain unless it says otherwise.
# UniProt Q15208: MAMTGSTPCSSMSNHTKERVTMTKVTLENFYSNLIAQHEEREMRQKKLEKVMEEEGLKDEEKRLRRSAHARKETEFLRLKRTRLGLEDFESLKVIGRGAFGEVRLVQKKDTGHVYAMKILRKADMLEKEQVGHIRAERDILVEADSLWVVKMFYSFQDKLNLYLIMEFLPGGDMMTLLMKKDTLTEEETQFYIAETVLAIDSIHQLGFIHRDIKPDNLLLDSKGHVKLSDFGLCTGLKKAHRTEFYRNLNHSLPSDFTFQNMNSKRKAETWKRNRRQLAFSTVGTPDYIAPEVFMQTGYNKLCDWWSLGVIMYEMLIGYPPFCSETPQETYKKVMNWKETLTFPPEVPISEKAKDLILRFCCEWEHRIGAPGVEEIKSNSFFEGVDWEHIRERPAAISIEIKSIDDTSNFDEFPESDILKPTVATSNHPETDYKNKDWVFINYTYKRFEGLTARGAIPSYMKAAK
# UniProt P42680: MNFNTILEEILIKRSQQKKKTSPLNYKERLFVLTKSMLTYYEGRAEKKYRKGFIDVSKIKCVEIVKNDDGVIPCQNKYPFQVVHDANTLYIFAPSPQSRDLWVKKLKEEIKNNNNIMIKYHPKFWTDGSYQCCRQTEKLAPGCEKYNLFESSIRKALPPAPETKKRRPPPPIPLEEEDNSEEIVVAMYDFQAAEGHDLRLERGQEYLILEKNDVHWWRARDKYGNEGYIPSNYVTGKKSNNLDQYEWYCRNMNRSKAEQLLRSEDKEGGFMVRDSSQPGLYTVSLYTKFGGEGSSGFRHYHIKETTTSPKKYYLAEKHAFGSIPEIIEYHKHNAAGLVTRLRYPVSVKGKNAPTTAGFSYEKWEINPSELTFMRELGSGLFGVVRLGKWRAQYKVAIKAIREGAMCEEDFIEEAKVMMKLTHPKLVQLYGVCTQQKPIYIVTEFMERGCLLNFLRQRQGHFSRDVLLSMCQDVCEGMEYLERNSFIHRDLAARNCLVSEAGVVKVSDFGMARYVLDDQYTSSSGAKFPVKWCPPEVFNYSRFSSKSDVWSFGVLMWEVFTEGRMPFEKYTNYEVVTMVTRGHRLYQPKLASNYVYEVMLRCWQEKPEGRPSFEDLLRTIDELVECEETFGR
# UniProt P29597: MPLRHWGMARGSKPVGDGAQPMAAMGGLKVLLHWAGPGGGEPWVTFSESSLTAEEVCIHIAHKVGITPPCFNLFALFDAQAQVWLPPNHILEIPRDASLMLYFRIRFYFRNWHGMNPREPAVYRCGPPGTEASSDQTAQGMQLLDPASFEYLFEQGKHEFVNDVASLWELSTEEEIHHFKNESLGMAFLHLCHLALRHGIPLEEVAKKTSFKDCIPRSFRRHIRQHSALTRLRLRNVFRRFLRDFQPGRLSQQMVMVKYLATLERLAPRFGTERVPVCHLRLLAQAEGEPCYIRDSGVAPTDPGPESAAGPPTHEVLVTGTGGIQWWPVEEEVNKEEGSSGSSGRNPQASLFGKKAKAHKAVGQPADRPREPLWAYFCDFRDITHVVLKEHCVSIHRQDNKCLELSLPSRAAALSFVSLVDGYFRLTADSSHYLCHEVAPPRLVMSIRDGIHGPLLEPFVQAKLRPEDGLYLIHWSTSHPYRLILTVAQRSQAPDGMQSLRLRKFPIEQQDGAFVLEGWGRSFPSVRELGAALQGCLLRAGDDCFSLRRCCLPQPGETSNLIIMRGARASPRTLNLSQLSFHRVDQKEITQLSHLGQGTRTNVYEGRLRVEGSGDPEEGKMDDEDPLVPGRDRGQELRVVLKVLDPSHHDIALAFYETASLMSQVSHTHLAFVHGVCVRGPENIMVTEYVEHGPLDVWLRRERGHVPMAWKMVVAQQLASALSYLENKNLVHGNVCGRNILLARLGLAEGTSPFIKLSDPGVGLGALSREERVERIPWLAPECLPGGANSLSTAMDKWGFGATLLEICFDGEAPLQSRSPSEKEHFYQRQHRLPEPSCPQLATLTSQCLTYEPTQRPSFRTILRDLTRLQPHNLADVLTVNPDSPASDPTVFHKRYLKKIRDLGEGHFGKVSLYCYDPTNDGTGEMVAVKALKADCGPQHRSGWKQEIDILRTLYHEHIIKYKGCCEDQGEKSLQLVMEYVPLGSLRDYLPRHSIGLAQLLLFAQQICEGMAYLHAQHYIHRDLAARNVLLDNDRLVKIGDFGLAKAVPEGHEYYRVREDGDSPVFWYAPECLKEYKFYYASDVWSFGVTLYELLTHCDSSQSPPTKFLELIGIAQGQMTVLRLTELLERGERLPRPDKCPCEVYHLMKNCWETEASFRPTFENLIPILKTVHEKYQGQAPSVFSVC
# UniProt P43403: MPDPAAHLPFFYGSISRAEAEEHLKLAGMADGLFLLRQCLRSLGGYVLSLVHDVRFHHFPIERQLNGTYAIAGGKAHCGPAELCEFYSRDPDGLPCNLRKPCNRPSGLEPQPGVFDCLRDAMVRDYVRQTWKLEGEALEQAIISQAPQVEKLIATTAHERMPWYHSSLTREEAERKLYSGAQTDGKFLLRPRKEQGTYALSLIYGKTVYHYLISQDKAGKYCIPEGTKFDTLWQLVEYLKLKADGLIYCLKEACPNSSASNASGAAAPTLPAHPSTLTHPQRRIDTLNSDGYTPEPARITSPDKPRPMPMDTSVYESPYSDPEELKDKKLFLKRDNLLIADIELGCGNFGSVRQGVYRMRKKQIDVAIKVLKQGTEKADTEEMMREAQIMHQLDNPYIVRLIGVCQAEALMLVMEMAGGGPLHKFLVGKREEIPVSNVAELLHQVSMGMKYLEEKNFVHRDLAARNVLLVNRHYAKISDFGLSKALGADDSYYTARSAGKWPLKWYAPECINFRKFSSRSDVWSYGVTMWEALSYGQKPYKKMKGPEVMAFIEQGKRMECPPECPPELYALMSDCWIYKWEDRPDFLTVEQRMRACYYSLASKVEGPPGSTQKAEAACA
# UniProt P00519, whole entry: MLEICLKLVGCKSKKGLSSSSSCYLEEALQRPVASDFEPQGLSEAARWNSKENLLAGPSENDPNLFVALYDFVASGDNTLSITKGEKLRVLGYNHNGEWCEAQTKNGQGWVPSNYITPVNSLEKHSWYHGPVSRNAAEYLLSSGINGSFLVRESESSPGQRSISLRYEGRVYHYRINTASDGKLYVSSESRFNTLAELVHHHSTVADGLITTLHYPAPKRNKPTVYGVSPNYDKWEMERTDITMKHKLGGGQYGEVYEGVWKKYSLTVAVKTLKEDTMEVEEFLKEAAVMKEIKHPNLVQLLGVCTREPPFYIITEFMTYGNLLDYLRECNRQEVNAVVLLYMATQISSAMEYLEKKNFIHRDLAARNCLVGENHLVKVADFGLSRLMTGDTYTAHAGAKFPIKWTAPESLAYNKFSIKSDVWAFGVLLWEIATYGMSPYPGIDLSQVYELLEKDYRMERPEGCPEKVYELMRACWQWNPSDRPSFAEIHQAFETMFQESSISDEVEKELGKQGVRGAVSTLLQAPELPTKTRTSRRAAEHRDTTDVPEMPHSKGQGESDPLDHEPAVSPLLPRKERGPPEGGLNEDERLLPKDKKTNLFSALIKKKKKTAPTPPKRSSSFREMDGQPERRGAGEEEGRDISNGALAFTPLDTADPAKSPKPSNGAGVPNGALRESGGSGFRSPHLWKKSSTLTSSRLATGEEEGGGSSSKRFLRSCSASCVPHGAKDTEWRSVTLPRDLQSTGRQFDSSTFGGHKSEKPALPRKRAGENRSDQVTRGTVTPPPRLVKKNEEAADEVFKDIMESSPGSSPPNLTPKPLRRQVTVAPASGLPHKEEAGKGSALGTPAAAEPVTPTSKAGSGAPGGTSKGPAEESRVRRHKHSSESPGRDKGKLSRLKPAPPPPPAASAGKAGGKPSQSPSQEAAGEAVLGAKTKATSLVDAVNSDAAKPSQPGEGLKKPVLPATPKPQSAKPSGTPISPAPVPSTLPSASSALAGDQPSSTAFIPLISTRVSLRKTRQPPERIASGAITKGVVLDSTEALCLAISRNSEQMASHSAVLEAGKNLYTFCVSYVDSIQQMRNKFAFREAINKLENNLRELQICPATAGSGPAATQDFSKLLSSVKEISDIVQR
# UniProt Q96GD4, whole entry: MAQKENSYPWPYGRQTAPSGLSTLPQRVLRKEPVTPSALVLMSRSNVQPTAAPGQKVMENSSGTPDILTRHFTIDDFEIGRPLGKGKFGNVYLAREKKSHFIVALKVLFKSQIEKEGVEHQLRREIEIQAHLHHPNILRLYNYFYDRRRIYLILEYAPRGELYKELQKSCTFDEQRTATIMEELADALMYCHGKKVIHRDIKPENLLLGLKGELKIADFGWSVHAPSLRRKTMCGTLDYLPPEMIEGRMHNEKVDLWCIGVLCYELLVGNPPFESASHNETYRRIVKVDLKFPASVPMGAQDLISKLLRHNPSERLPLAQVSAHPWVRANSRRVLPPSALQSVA
# UniProt P51451: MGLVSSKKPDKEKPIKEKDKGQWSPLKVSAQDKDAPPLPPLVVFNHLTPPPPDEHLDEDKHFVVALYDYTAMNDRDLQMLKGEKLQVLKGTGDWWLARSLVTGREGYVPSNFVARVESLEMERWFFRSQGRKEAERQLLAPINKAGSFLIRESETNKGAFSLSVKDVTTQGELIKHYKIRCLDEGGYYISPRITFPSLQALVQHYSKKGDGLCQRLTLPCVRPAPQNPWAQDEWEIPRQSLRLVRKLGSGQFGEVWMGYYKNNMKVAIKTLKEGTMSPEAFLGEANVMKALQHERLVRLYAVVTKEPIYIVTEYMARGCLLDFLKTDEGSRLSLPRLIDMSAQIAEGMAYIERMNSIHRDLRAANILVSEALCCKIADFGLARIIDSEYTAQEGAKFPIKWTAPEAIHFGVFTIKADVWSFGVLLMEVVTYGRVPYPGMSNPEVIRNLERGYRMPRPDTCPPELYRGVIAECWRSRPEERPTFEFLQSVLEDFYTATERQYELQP
# UniProt P15056, whole entry, looked up: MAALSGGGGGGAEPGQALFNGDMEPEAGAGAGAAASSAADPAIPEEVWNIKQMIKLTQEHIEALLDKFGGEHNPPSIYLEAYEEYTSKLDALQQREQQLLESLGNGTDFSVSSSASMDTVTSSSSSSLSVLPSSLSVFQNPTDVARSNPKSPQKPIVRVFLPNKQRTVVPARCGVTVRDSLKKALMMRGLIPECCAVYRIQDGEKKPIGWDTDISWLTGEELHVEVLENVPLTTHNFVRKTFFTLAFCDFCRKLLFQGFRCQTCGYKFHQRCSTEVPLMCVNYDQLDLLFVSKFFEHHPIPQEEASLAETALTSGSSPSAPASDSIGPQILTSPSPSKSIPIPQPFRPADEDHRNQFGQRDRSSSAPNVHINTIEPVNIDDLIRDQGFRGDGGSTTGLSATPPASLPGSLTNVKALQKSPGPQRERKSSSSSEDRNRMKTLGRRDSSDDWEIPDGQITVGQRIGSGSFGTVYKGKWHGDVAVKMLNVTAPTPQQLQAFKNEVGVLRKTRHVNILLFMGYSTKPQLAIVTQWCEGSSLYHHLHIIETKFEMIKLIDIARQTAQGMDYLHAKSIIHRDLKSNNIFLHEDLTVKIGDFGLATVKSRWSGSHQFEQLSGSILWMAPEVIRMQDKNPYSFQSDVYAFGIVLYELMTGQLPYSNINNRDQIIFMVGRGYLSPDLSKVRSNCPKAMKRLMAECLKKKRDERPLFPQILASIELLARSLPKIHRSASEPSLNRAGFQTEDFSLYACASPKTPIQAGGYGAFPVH
# UniProt Q06187: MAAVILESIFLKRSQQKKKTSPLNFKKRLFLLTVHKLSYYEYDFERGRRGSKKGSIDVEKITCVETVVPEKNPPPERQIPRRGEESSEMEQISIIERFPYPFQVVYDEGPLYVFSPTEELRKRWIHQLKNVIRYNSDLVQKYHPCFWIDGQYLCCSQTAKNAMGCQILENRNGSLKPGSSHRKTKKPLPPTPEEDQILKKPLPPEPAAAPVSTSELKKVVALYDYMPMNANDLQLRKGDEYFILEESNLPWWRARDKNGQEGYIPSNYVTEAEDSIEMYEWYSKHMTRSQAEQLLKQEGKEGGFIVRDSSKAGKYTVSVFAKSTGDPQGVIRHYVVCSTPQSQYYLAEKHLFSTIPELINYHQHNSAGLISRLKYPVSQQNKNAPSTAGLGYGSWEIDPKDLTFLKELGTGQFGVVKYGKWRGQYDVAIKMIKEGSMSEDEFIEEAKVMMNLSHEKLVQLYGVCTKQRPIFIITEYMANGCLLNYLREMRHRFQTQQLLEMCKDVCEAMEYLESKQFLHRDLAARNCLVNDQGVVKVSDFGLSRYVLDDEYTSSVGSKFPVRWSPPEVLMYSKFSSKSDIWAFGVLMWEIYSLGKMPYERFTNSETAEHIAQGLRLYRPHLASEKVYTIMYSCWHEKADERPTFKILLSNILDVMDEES
# How the values were obtained:
# Conditions in all cases: K562; 2-18 h
# STK38 = STK38 (UniProt Q15208); assay: kinase-Nluc reporter destabilization hit call (1 = scored as downregulated) (binary); higher = compound decreases kinase abundance
# SYK = SYK (UniProt P43405); assay: as above
# TEC = TEC (UniProt P42680); assay: as above
# TYK2 = TYK2 (UniProt P29597); assay: as above
# ULK3 = ULK3 (UniProt Q6PHR2); assay: as above
# YES1 = YES1 (UniProt P07947); assay: as above
# ZAK = ZAK (UniProt Q9NYL2); assay: as above
# ZAP70 = ZAP70 (UniProt P43403); assay: as above
# ABL1 = ABL1 (UniProt P00519); assay: number of time points (of 5) at which kinase-Nluc abundance scored as decreased, DMSO-normalised (count); higher = more persistent destabilization
# AKT1 = AKT1 (UniProt P31749); assay: as above
# ALK = ALK (UniProt Q9UM73); assay: as above
# ARAF = ARAF (UniProt P10398); assay: as above
# AURKA = AURKA (UniProt O14965); assay: as above
# AURKB = AURKB (UniProt Q96GD4); assay: as above
# AURKC = AURKC (UniProt Q9UQB9); assay: as above
# BLK = BLK (UniProt P51451); assay: as above
# BMX = BMX (UniProt P51813); assay: as above
# BRAF = BRAF (UniProt P15056); assay: as above
# BRAF_V600E = assay: as above
# BTK = BTK (UniProt Q06187); assay: as above
SMILES,kinase-Nluc reporter destabilization hit call (STK38),kinase-Nluc reporter destabilization hit call (SYK),kinase-Nluc reporter destabilization hit call (TEC),kinase-Nluc reporter destabilization hit call (TYK2),kinase-Nluc reporter destabilization hit call (ULK3),kinase-Nluc reporter destabilization hit call (YES1),kinase-Nluc reporter destabilization hit call (ZAK),kinase-Nluc reporter destabilization hit call (ZAP70),number of time points (ABL1),number of time points (AKT1),number of time points (ALK),number of time points (ARAF),number of time points (AURKA),number of time points (AURKB),number of time points (AURKC),number of time points (BLK),number of time points (BMX),number of time points (BRAF),number of time points (BRAF_V600E),number of time points (BTK)
CC(C)(C)c1cc(C=C(C#N)C#N)cc(Br)c1O (2.5 µM),inactive: 0,inactive: 0,inactive: 0,inactive: 0,inactive: 0,inactive: 0,inactive: 0,inactive: 0,0,0,0,0,0,0,0,0,0,0,0,0
C=CC(=O)N[C@H]1C=C(C)c2c(-c3cnc4ccccc4c3)c3c(N)ncnc3n2C1 (10 µM),inactive: 0,inactive: 0,inactive: 0,inactive: 0,inactive: 0,inactive: 0,inactive: 0,inactive: 0,0,0,0,0,0,0,0,0,0,0,0,0
Cc1[nH]ncc1-c1cc2nc([C@H]3CC4CCN3CC4)[nH]c(=O)c2s1 [(R)-Simurosertib] (10 µM),inactive: 0,inactive: 0,inactive: 0,inactive: 0,inactive: 0,inactive: 0,inactive: 0,inactive: 0,0,0,0,0,1,0,0,0,0,0,0,0
O=C(N[C@@H](COc1ccc2[nH]c(=O)[nH]c2c1)c1ccccc1)c1cccn(Cc2ccc(F)c(F)c2)c1=O (2.5 µM),inactive: 0,inactive: 0,inactive: 0,inactive: 0,inactive: 0,inactive: 0,inactive: 0,inactive: 0,0,0,0,0,0,0,0,0,0,0,0,0
Cc1n[nH]cc1-c1cc2nc([C@@H]3CC4CCN3CC4)[nH]c(=O)c2s1 [Simurosertib] (2.5 µM),inactive: 0,inactive: 0,inactive: 0,inactive: 0,inactive: 0,inactive: 0,inactive: 0,inactive: 0,0,0,0,0,0,0,0,0,0,0,0,0
CCCS(=O)(=O)Nc1ccc(F)c(-n2cc(-c3cncnc3)c3nc(N(C)C4CCN(CC)CC4)ccc32)c1F (2 µM),inactive: 0,inactive: 0,inactive: 0,inactive: 0,inactive: 0,inactive: 0,inactive: 0,inactive: 0,0,0,0,0,0,0,0,0,0,0,0,0
Cn1cc(C2=C(c3cn(C4CCN(Cc5ccccn5)CC4)c4ccccc34)C(=O)NC2=O)c2ccccc21 [Enzastaurin] (10 µM),inactive: 0,inactive: 0,inactive: 0,inactive: 0,inactive: 0,inactive: 0,inactive: 0,inactive: 0,0,0,0,0,0,0,0,0,0,0,0,0
Cc1ccccc1-n1c(Cn2ncc3c(N)ncnc32)nc2cccc(C)c2c1=O (10 µM),inactive: 0,inactive: 0,inactive: 0,inactive: 0,inactive: 0,inactive: 0,inactive: 0,inactive: 0,0,0,0,0,0,0,0,0,0,0,0,0
COc1ccc(N(C(=O)Oc2c(C)cccc2C)c2ccnc(Nc3ccc(N4CCN(C)CC4)cc3)n2)c(OC)c1 (2.5 µM),inactive: 0,inactive: 0,inactive: 0,inactive: 0,inactive: 0,inactive: 0,inactive: 0,inactive: 0,0,0,0,0,0,0,0,1,0,0,0,0
CC(=O)O[C@H]1[C@H]2[C@@H](OC(=O)Cc3ccccc3)[C@@H](C)C[C@]2(OC(C)=O)C(=O)/C(C)=C/[C@@H]2[C@H](CC[C@@]13CO3)C2(C)C [Euphorbiasteroid] (10 µM),inactive: 0,inactive: 0,inactive: 0,inactive: 0,inactive: 0,inactive: 0,inactive: 0,inactive: 0,0,0,0,0,0,0,0,0,0,0,0,0
